Measurements from paper PMC8187357 (Communications Biology, 2021).
Where “and” joins values, the source holds several entries; their conditions need not be identical. Identical values can stand only once.

How the values were obtained:
[1] = general procedure: peptide synthesis; CTC resin; HATU/DIPEA (head-to-tail cyclisation); settings: whole synthesis
[2] = system: parental CHO-K1 cells; test: Cellular NMR (T2), parental CHO-K1 cells; type: binding; settings: trials

HELM PEPTIDE1{E.S.F.S.N.T.S}$PEPTIDE1,PEPTIDE1,1:R1-7:R2$$$V2.0 (SMILES C[C@@H](O)[C@@H]1NC(=O)[C@H](CC(N)=O)NC(=O)[C@H](CO)NC(=O)[C@H](Cc2ccccc2)NC(=O)[C@H](CO)NC(=O)[C@H](CCC(=O)O)NC(=O)[C@H](CO)NC1=O)
final HPLC purity [1]: 97%

C[C@@H](O)[C@H](NC(=O)N[C@@H](CC(N)=O)c1nc([C@@H](N)CO)no1)C(=O)O [CA-170]
T2 ([2]; CA-170 5.0 µM): 70.18 mS and 63.50 mS | T2 ([2]; CA-170 7.5 µM): 70.48 mS | T2 ([2]; CA-170 10.0 µM): 69.86 mS | T2 ([2]; CA-170 20.0 µM): 65.57 mS and 57.14 mS | T2 ([2]; CA-170 40.0 µM): 72.39 mS and 60.00 mS and 66.66 mS
